Assay results: patent publication US20250353828A1, “SUBSTITUTED BIARYL ENDOCHIN-LIKE QUINOLONES WITH ENHANCED ANTIPARASITIC ACTIVITY” (Oregon Health & Science University, priority 2022, published 2025)
At least one structure is not confirmed: it was looked up by name or label, or the drawing left a doubt.

The chains behind the UniProt entries cited, without tags or fusion partners. Where a name states a change or a piece, a line headed by the entry shows the natural chain unless it says otherwise.
UniProt P00156: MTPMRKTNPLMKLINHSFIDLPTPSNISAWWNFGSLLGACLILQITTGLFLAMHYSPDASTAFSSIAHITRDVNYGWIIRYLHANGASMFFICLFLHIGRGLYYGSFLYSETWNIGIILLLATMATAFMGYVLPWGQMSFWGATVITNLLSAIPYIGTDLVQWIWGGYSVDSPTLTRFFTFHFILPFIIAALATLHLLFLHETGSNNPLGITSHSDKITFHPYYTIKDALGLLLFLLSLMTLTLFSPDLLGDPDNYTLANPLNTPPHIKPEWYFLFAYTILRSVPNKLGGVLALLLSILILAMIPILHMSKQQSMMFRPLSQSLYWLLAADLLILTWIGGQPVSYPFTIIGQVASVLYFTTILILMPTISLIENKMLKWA

Molecular target: T1, human liver cytochrome bc1 complex (Homo sapiens, UniProt P00156)
T1 construct: human host cytochrome bc1 complex isolated from human liver tissue; from tissue; host or cells: human liver tissue
Assay: Inhibition of human cytochrome bc1 complex
Assay type: biochemical
Details: at a concentration of 10,000 nM
Excerpt: Human Cytochrome bc1 Assays.

In the case of COc1cc2[nH]c(C)c(-c3ccc(-c4ccc(OC(F)(F)F)cc4)cc3)c(=O)c2cc1Cl [ELQ-596, 6-chloro-7-methoxy-2-methyl-3-(4′-(trifluoromethoxy)-[1,1′-biphenyl]-4-yl)quinolin-4(1H)-one], the “inhibition of the human host cytochrome bc1 complex” value is reported as “no detectable inhibition”.
